Values quoted from earlier work in patent publication US7264629B2, “Photodynamic therapy for the treatment of hair loss” (QLT, Inc., priority 2001, dated 2007).
At least one compound was matched to its structure with a doubt left.

System: AGA
Conditions: 2% topical, after 4-12 months; cited from earlier work

Structure (SMILES): Nc1cc(N2CCCCC2)nc(N)[n+]1[O-] [Minoxidil, minoxidil]
- numbers of terminal hairs: increase in the numbers of terminal hairs
